Laboratory results as given in paper PMC5882713, “Sensitive colorimetric assay using insulin G-quadruplex aptamer arrays on DNA nanotubes coupled with magnetic nanoparticles”.

Test system: insulin
Test: colorimetric aptamer capture assay (hemin/TMB peroxidase read-out, 450 nm) on MNP-coupled DNA nanotubes
Settings: hemin, 100 nM insulin, 2 uM aptamer, signal linear 1.56-100 uIU/ml, LoD 0.39 uIU/ml; Binding buffer 20 mM Tris-HCl, 140 mM NaCl, 5 mM KCl, 1 mM CaCl2, 1 mM MgCl2, pH 7.4, room temperature, 40-60 min; then hemin in DMSO 1 h and TMB-H2O2; commercial protein; label: 5' biotin; folded or branched DNA

GGTGGTGGGGGGGGTTGGTAGGGTGTCTTC [G-quadruplex insulin aptamer (G-rich aptamer)]
binding result: binds

The exact form of at least one protein or probe is not confirmed. At least one verdict rests on a figure or table, not on a statement of the authors.
